Data taken from ChEMBL document CHEMBL3988442, “University of Dundee, Small-Polar-MMV Screening Library” (2021).

Mtb glucose medium: 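Growth of Mycobacterium tuberculosis over 3 days (7H9 medium with glucose and tyloxapol); the read-out is not stated. Tested at 50 µM. Direction is inferred from retests: higher values go with more growth inhibition. Size under these conditions: about 69,000 compounds, about 760 of them at 50% or above in at least one test.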
Mtb cholesterol medium: 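Phenotypic screen: M. tuberculosis growth, cholesterol and DPPC medium, 4 days; the read-out is not stated. Compounds at 50 µM. The record gives no direction; compounds that gave an IC50 in retests scored well above the rest, so higher reads as more growth inhibition. Size under these conditions: about 69,000 compounds, about 370 of them at 50% or above in at least one test.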

Results are given as percent effect. The controls that fix the scale are not given in the record; negative values are as filed. The compounds are a random part of those screened. Two or more numbers in one place are separate tests of the same structure; such repeats can differ widely.

SMILES	Mtb glucose medium	Mtb cholesterol medium
CC1CN(Cc2cc(C#N)ccc2F)CCN1Cc1nccn1C (centres unmarked)	-13.94	-7.004
O=C(NCCCn1cccn1)C1(c2ccc(Br)cc2)CC1	6.808 & 21.04	-7.084
CCCN1CCN(S(=O)(=O)c2ncn(C)c2Cl)CC1	-7.671 & 17.65	12.86
CCN(CC)C(CNC(=O)c1cccnc1-n1cncn1)c1ccsc1 (centres unmarked)	20.5	-0.4279
CN(CCN1CCCCCC1)Cc1cnc(N)nc1	-10.98	-6.907 & -2.038
Cn1ccc(C(=O)N2CCC[C@]3(C[C@@H](OCc4ccccn4)CO3)C2)n1.O=C(O)C(F)(F)F	0.6484	-25.2
O=C(C[S+]([O-])Cc1ccc(F)cc1Cl)N1CCc2sccc2C1 (centres unmarked)	-6.504	-16.69
c1ccc(-n2ncc(CNC3CCc4ncnn4C3)n2)cc1 (centres unmarked)	-28.1	9.495
CCN(CCC(=O)OC)C(=O)c1cc(F)cc2[nH]cnc12	-24.18	1.53
CN(C(=O)CNc1ccc(C#N)cc1)C1CCCCC1	0.5428	2.454
Cc1ccn2c(F)c(C(=O)N3CCC4(CCCN(C)C4=O)C3)nc2c1 (centres unmarked)	-20.29	0.0317
N#Cc1nccnc1N1CCC(C(O)c2cccs2)CC1 (centres unmarked)	13.9 & 2.183	-0.8119
Cc1cc(C)n(C2CCCN(C(=O)c3cn4cccnc4n3)C2)n1 (centres unmarked)	-12.13	-3.592
Cc1cc(NCCN)nc2ccccc12.O=[N+]([O-])O	-1.714	4.364 & 2.895
CN1CCCCC12Cc1ccccc1CN(C(=O)c1ccccc1)C2 (centres unmarked)	20.11	-2.427
O=C(Nc1ccc2c(c1)OC1(CCCC1)O2)c1ccc(=O)[nH]n1	11.48 & 20.64	3.189
CCn1ccnc1CN1CCCC1C(=O)Nc1nccs1 (centres unmarked)	-1.355	17.34
COCCNC(=O)NCc1cc(-c2cccs2)n(C2CCCC2)n1	2.829	0.2629
CCOc1cccc(CN(Cc2cnn(C)c2)CC(C)C)c1O	14.07 & -1.151	14.97
COc1cc(-c2cc(NC3CCCC3)nc3[nH]ccc23)nc(N)n1	-13.02	15.57
COCC(=O)N1CCC(c2cc(C(F)(F)F)n3ccnc3n2)CC1	13.37	-4.947
COc1ccc(N2CCC(C(=O)/N=c3/[nH]ccs3)CC2)nn1	-27.1	-5.494
Cc1cn(-c2ccccc2)nc1NS(=O)(=O)c1cc(C(=O)O)sc1C	-0.2681	19.02
CCn1cnnc1CN(C)C(=O)C1CCC(=O)N(CC2CCCCC2)C1 (centres unmarked)	9.663	2.617 & -3.09
CN1CCN(c2ccc(NCc3ccc([S+](C)[O-])cc3)cn2)CC1 (centres unmarked)	-57.36 & -11.26	-48
CSCC(=O)NC1CCN(C(C)c2ccccc2)CC1 (centres unmarked)	11.99 & -39.36	-3.229
CCS(=O)(=O)NCc1nc(C)cc(N2CCOCC2)n1	11.1	0.5153
O=C(O)c1cc(-c2ccoc2)cc(S(=O)(=O)NC2CC2)c1	66.57	-17.52 & 6.109
NC(=O)CN1CCCN(C(=O)Cc2ccc(Br)cc2)CC1	1.133	11.18
CC(C)(O)CCc1cccc(C(=O)NCc2nccs2)c1	-10.19 & 0.2605	-20.05
Cc1cn2c(n1)CCC(NC(=O)CCOc1ccccc1F)C2 (centres unmarked)	-12.85	-1.96 & -3.858
CC(=O)NCCNc1nc(-c2ccccn2)nc2c1c(C)nn2C	-2.833 & 0.1076	-3.676
CC(CNC(=O)N1CCN(Cc2ccon2)CC1)N(C)C1CC1 (centres unmarked)	21.51	0.6577 & -7.546
COC(=O)c1cc(NCC(=O)NC(N)=O)cc(C(F)(F)F)c1	-11.66	-9.729
[H][C@@]12COC[C@]1([H])[C@H](OCc1csc(C)n1)CN2Cc1ccc(F)cc1	-1.016	10.61
O=C(O)C(F)(F)F.O=C(O)C(F)(F)F.[H][C@]12C[C@@H](Cn3cncn3)N(C)[C@@]1([H])CCN(C1CCOCC1)C2	-3.264 & -40.19	-11.31
CC(C(=O)Nc1nccs1)N1CCc2nn(C)c(=O)cc2C1 (centres unmarked)	3.669	-3.578
COc1ccc(C(=O)N2CCCC(C)C2)cc1F (centres unmarked)	10.25	-7.18
O=C(O)C(F)(F)F.[H][C@]12C[C@@H](CN(C)C)N(C(C)=O)[C@@]1([H])CCN(C(=O)c1cccc(F)c1)C2	-6.653	12.12
CCCc1nc(C)cc(N2CCC3(CCC(=O)N(CCCO)C3)CC2)n1	0.289 & -4.886	-6.148
CCc1ccccc1OC1CN(C(=O)CN(C)Cc2cccnc2)C1	24.5	-40.74
O=C(CCn1cc(Cl)cn1)N1CCC2(CC1)[C@H](O)C[C@@H]2OCCO	-23.34 & -7.005	-8.191
Cc1nc(C2(NCc3c(C)nn(C)c3N3CCOCC3)CCC2)no1	-10.5	-13.72
CC(c1nc(C(C)(C)C)no1)S(=O)(=O)CC(=O)N1CCCC1 (centres unmarked)	5.191	-19.39
COC(=O)CCC(=O)N1CCC2(CN(Cc3cccc(F)c3)C2)C1	-22.93	-5.118
CCOCC(O)CN1CCN(C(=O)c2ccnc(N(C)C)c2)CC1 (centres unmarked)	1.113	10.73
O=C(CCCc1cn[nH]c1)N1C[C@@H](CN2CCCCCC2)[C@@H](CO)C1	17.1	9.818
O=C(O)C(F)(F)F.O=C(O)C(F)(F)F.[H][C@@]12OCCN(Cc3nccs3)[C@@]1([H])CC[C@@H]2OCc1ccncc1	24.31	-2.03
C=C(C)CN1CCC(NC(=O)NCCc2cccc(C(N)=O)c2)CC1	13.03 & -7.455	10.68
CN(C)C(=O)c1cccc(CNc2ccc(C#N)cn2)c1	0.8814	-16.43
COc1coc(CN2CCCC(CCc3ccc(F)cc3)C2)cc1=O (centres unmarked)	28.29 & 40.3	43.66
OC(COCc1ccco1)CSc1nnc2ccccn12 (centres unmarked)	8.62	23.78

Some entries from above, unchanged:

SMILES	Mtb glucose medium	Mtb cholesterol medium
COc1ccc(N2CCC(C(=O)/N=c3/[nH]ccs3)CC2)nn1	-27.1	-5.494
CN1CCCCC12Cc1ccccc1CN(C(=O)c1ccccc1)C2 (centres unmarked)	20.11	-2.427
Cc1cc(C)n(C2CCCN(C(=O)c3cn4cccnc4n3)C2)n1 (centres unmarked)	-12.13	-3.592